According to patent US20230184787A1:
No constants are given. Whether binding was seen depends on the method and setting. Some entries that bind do so weakly or less than the wild type.

Experiments:
[1] = target: T1, HNE cleaved calprotectin (HNE-generated fragment NBH-222 carrying the N-terminus neo-epitope CPa9-HNE) (Homo sapiens); assay: competitive ELISA (CPa9-HNE assay)
T1 sequence (peptide): KLGHPDTLNQGEFKELV

[2] = target: T1, HNE cleaved calprotectin (HNE-generated fragment NBH-222 carrying the N-terminus neo-epitope CPa9-HNE) (Homo sapiens); assay: competitive ELISA (CPa9-HNE assay) on in vitro cleavage samples, FIG. 2C

binding [1]: binds | binding [2]: binds
B1: CPa9-HNE antibody (antibody, mouse IgG1, kappa, V domains shown)
VH: QVQLQQSGPELVKPGASVKMSCKASGYTFTDHVINWVRQRTGQGLEWIGEIYPGSGSTYYNEKFKGKATLTADKSSNTAYMQLSSLTSEDSAVYFCAWFAYWGQGTLVTVSA
VL: DIVMTQSPSSLSVSAGEKVTMSCKSSQSLLNSGNQKNYLAWYQQKPGQPPKLLIYGASTRESGVPDRFTGSGSGTDFTLTISSVQAEDLAVYYCLNDHSYPYTFGGGTKLEIKR
